From publication doi:10.1101/2023.03.14.532574
Results are given in words; binding and its absence hold for the method and conditions named. In cells and extracts the contact can be indirect. A yes stands for co-enrichment or nearness to the bait. Other partners may have been found. A no says only that the protein was not detected with the bait.

Legend:
[1] = molecular target: recombinant human dynein tail complex (human); test: affinity purification with mass spectrometry
[2] = molecular target: recombinant human dynein tail complex (human); test: affinity purification with mass spectrometry; remark: listed apart in the source
[3] = molecular target: recombinant human dynein tail complex (human); test: condition: only without exogenous dynactin in the extract

binding [1] | binding [2] | binding [3] | Binder
binds |  |  | Ndel1 (protein, UniProt Q9ERR1 1-345) MDGEDIPDFSSLKEETAYWKELSLKYKQSFQEARDELVEFQEGSRELEAELEAQLVQAEQRNRDLQADNQRLKYEVEALKEKLEHQYAQSYKQVSVLEDDLSQTRAIKEQLHKYVRELEQANDDLERAKRATIVSLEDFEQRLNQAIERNAFLESELDEKESLLVSVQRLKDEARDLRQELAVRERQQEVTRKSAPSSPTLDCEKMDSAVQASLSLPATPVGKGTENSFPSPKAIPNGFGTSPLTPSARISALNIVGDLLRKVGALESKLAACRNFAKDQASRKSYVPGSVNCGVMNSNGPECPRSGRATFFHKGAVNGFDPAPPPPGLGSSRPSSAPGMLPLSV
no binding | no binding |  | Aftiphilin of the mouse brain extract (protein, UniProt Q80WT5 1-931) MEPDIIRMYSSSPPPLDNGAEDDEEDEFGEFGGFSEVSPSGVGFVDFDTPDYTRPKEDFVPSNHFMPIHEYSEDVDSLTSFKSVQNGNDKDITAELSTPVKSQSDVVLSTTSKEMIPSKTLDPSIDGMESLEDLDKVVVQGPSTGQLRSFSPGDFRTDKNIVHQTKQLESCNGEKPPCLEILTNGFAGLETVNPQGTDDLDNVADSKGSKPLNTCGTECILESAASHATEFADFSTFSQTERTQLEEIECPVLNDGDTLTIQGNSKGPRVKELNCVKEVTLDGSFEDTGNTEREHQVCVSEIHAVADRGLSVEKQDLQTLQQDEFLNSRIQSEAWSLVDSSENSEAITKERCKMEKNDLFASKCADLSMDSVKTSDVNEIGSSKEENRKLTNPKSPDPDPTGQNALDDSAASMKNGDSGNGFVTCHDTNEDDFGDFGTANGTTPPFVTSTQDSMSDVTFEDSSEHFLHLSEPGDDFGEFEDTNAVSCQEEMRFTESDLRQTSDGLSEECPLAGESGGKDSKPDSKLKNGQDSEFGDFDSVPNTQGSAFQDSDDFADFSSAGPSQAVDWNAFEDEQKDGCSWAAFGDQQETESHHLKEVWQSQRTDETMGTLGTPKMHSVSSAASKGAVASGHLQEPGTSVQTALLNRLERIFEACFPSVFVPDVEEEVSSLKHLLETHSSPAKTREALADRGELRGVWTELQDIHDAHGLRYQWGGSHSNKKLLCSLGIDTRNILFTGNKKQPVIVPMYAAGLGMLEPTKEPLKPLSAAEKIASIGQTTVMTPEINTCTSDPFQESLPPVQFDWSSSGLTNPLDASGGSTLLNLDFFGPVDDSSSSSSTIPGVDPELYELTTAKLETSTSSLRVTDAFAKLMSTVEKTSTSTRKPKREEHLSEEAMKVIASLPDLTFMHAKVLMFPATLTPSMSSQEQADA
binds |  | no binding | Wdr91 (protein, UniProt Q7TMQ7 1-748) MAEAVERTDELVREYLLFRGFTHTLRQLDAEIKADKEKGFRVDKIVDQLQQLMQVYDLAALRDYWSYLERRLFSRLEDIYRPTINKLKTSLFRFYLVYTIQTNRNDKAQEFFAKQATELQNQAEWKDWFVLPFLPSPDTNPTFATYFSRQWADTFIISLHNFLSVLFQCMPVPVILNFDAECQRTNQVQEENEVLRQKLFALQAEIHRLKKEEQQQEEEAAALVQHKLPPYVSSMDRLGDSELALVCSQRPASLSQSPRVGFLSSLLPQSKKSPSRLSPAQGPPQAQSSAKKDSFSSQATKGKDSVPGAKDGKSLLSGPVPGEASWTHQRQRRLQDHGKERRELLSTSSSQSQCAERKPEVSGAEAEPCLELHMGPVEVLARVSTAGSEGDRPEQPFIVLSQEEYGEHHSSIMHCRVDCSGRRVASLDVDGVIKVWSFNPIMQTKASSISKSPLLSLEWATKRDRLLLLGSGVGTVRLYDTEAKKNLCEININDDMPRILSLACSPNGASFVCSAAAPSLTSQTDSSAPDIGSKGMNQVPGKLLLWDTKTMKQQLQFSLDPEPIAINCTAFNHNGNLLVTGAADGVIRLFDMQQHECAMSWKAHCGEVYSVEFSCDENAVYSIGEDRKFIQWNIHKSGLKVSESNLPSDATGPFVLSGYSGYKQVQVPRGRLFAFDSEGNYMLTCSATGGLIYKLGSEEKVLENCLSLGGHRAPVVTVDWSTAMDCGTCLTASMDGKIKLTTLLAHKL
binds |  |  | Dynlrb2 (protein, UniProt Q9DAJ5 1-96) MTEVEETLKRIQSHKGVIGTMVVNAEGIPIRTTLDNSTTVQYAGLLHQLTMKAKSTVRDIDPQNDLTFLRIRSKKHEIMVAPDKEYLLIVIQNPCE
no binding | no binding |  | γ-synergin of the mouse brain extract (protein, UniProt Q5SV85 1-1306) MALRPGAGASGAAGAGAGPGGAGSFMFPVAGGMRPPQAGLIPMQQQGFPMVSVMQPNMQGMMGMNYSSQMSQGPIAMQAGIPMGPMPAAGVPFLGQPPFLSMRPAGPQYTPDMQKQFAEEQQKRFEQQQKLLEEERKRRQFEEQKQKLRLLSSVKPKTGEKNRDDALEAIKGNLDGFSRDAKMHPTPASHPKKQGPSLEEKLLVSCDVSASGQEHIKLNTPDAGHKAIVPGSSKNCPGLMAHNRGAVDGCVSGPASAEAEKTSDQTLSKEESGVGVFPSQDPAQSRMPPWIYNESLVPDAYKKILETTMTPTGIDTAKLYPILMSSGLPRETLGQIWALANRTTPGRLTKEELYTVLAMVAVTQRGVPAMSPDALSQFPAAPIPTLSGFPMTLPTPVSQPTAMPSGPTGSMPLTLGQPIMGINLVGPVGGAAAPTSSGFMPAYPSNQVGKTEEDDFQDFQDASKSGSIDDSFTDFQEMPASSKTSNSQHGNSAPSLLIPFPGTKASTDKYAVFKGISTDKPSENPASFGESGDKYSAFRELEQTTDSKPLGESFAEFRSTGTDDGFTDFKTADSVSPLEPPTKDTFPSAFASGAAQQTQTQVKTPLNLEDLDMFSSVDCSGEKQVPFSATFSTAKSVSTRPQPAGSAAASAALASTKTSSLADDFGEFNLFGEYSNPASAGEQDDFADFMAFGNSSISSEPKASDKYEALREEVSPSPLSSSTVEGAQHPPAAATKYDVFKQLSLEGAGLAMEEFKENTSSTKSEDDFADFHSSKFSSTSSDKSLGEKAVAFRHAKEDSSSVKSLDLPSIGGSSVGKEDSEDALSVQFDMKLADVGGDLKHVMSDSSLDLPTVSGQHPPAADTEDLSCAAFGSCSSHFTVSTLTSCEWSDRADALQGRKLSPFVLSAGSRSFSATSNLHTKEISFGSSENITMSSLSKGSALASEDALPETAFPAFASFKDMMPQTTEQKEFESGDFQDFTRQDMPTVDRSQETSCPSPASSVASHETPKEGADDFGEFQSEKSKISKFDFLVANSQSKMKSSEEMIKSELATFDLSVQGSHKRSLSLGDKEISRSSPSPALEQPFRDRSNTLSERAALPVIRDKYKDLTGEVEENERYAYEWQRCLGSALDVIKKANDTLNGISSSAVCTEVIQSAQGMEYLLGVVEVYRVTKRVELGIKATAVCSEKLQQLLKDIDKVWNNLIGFMSLATLTPDENSLDFSSCMLRPGIKNAQELACGVCLLNVDSRSRKEETPAEEQPKKAFNSETDSFKLAYGGHQYHASCANFWINCVEPKPPGLLLPDLL
